Some results were stated once for a whole list of compounds, not compound by compound.
What was measured:
Assay type in all cases: in vivo
[1] = tested on: Fusarium oxysporum; assay: Preventing infection by tomato wilt by soil treatment (irrigation); conditions: tomato (Patio) in contaminated soil, 10 mg compound per pot by soil irrigation, 1 month
[2] = tested on: Verticillium albo-atrum, V. dahliae, V. nigrescens; assay: Potato blue stem, soil irrigation treatment; conditions: potato (Danshaku) in contaminated soil, 10 mg compound per pot by soil irrigation, 2 months
[3] = tested on: Gaeumannomyces graminis; assay: Malt damping off, seed treatment; conditions: contaminated malt seeds, seed treatment 200 g compound per 100 kg seeds, 1 month
[4] = tested on: Gibberella fujikuroi; assay: Rice bakanae disease, seed treatment; conditions: contaminated unhulled rice, seed treatment 200 g compound per 100 kg seeds, 1 month
[5] = tested on: Sclerotinia sclerotiorum; assay: Preventing infection by cucumber Sclerotinia rot, foliage application; conditions: cucumber (Sagami-Hanjiro), flowable formulation 500 ppm foliage application, then inoculation; 18° C. high humidity 4 days

Structure (SMILES): O=C(NCc1cccc(Oc2ccc(F)cc2)c1)c1ccc2ncsc2c1 [Compound 180]
- blotches in treated plants [1]: no blotches are found
- growth of treated plants [1]: favorably grow at a level equivalent to that of plants that grow have in noncontaminated soil
- blotches in treated plants [2]: no blotches are found
- growth of treated plants [2]: favorably grow at a level equivalent to that of plants that grow in noncontaminated soil
- growth of treated plants [3]: favorably grow at a level equivalent to that of plants that grow from noncontaminated seeds
- growth of treated plants [4]: favorably grow at a level equivalent to that of plants that have grown from noncontaminated unhulled rice
- infected areas of treated plants relative to infected areas of untreated plants [5]: ≤ 10%

Structure (SMILES): CCCCCc1cccc(CNC(=O)c2ccc3ncsc3c2)c1 [Compound 181]
- blotches in treated plants [1]: no blotches are found
- growth of treated plants [1]: favorably grow at a level equivalent to that of plants that grow have in noncontaminated soil
- blotches in treated plants [2]: no blotches are found
- growth of treated plants [2]: favorably grow at a level equivalent to that of plants that grow in noncontaminated soil
- growth of treated plants [3]: favorably grow at a level equivalent to that of plants that grow from noncontaminated seeds
- growth of treated plants [4]: favorably grow at a level equivalent to that of plants that have grown from noncontaminated unhulled rice
- infected areas of treated plants relative to infected areas of untreated plants [5]: ≤ 10%

Structure (SMILES): O=C(NCc1ccc(F)c(Oc2ccccc2)c1)c1ccc2ncsc2c1 [Compound 183]
- blotches in treated plants [1]: no blotches are found
- growth of treated plants [1]: favorably grow at a level equivalent to that of plants that grow have in noncontaminated soil
- blotches in treated plants [2]: no blotches are found
- growth of treated plants [2]: favorably grow at a level equivalent to that of plants that grow in noncontaminated soil
- growth of treated plants [3]: favorably grow at a level equivalent to that of plants that grow from noncontaminated seeds
- growth of treated plants [4]: favorably grow at a level equivalent to that of plants that have grown from noncontaminated unhulled rice
- infected areas of treated plants relative to infected areas of untreated plants [5]: ≤ 10%

Structure (SMILES): Cc1cccc(CNC(=O)c2ccc3ncsc3c2)c1 [Compound 188]
- blotches in treated plants [1]: no blotches are found
- growth of treated plants [1]: favorably grow at a level equivalent to that of plants that grow have in noncontaminated soil
- blotches in treated plants [2]: no blotches are found
- growth of treated plants [2]: favorably grow at a level equivalent to that of plants that grow in noncontaminated soil
- growth of treated plants [3]: favorably grow at a level equivalent to that of plants that grow from noncontaminated seeds
- growth of treated plants [4]: favorably grow at a level equivalent to that of plants that have grown from noncontaminated unhulled rice
- infected areas of treated plants relative to infected areas of untreated plants [5]: ≤ 30%

Structure (SMILES): O=C(NCc1cccc(O)c1)c1ccc2ncsc2c1 [Compound 190]
- blotches in treated plants [1]: no blotches are found
- growth of treated plants [1]: favorably grow at a level equivalent to that of plants that grow have in noncontaminated soil
- blotches in treated plants [2]: no blotches are found
- growth of treated plants [2]: favorably grow at a level equivalent to that of plants that grow in noncontaminated soil
- growth of treated plants [3]: favorably grow at a level equivalent to that of plants that grow from noncontaminated seeds
- growth of treated plants [4]: favorably grow at a level equivalent to that of plants that have grown from noncontaminated unhulled rice
- infected areas of treated plants relative to infected areas of untreated plants [5]: ≤ 10%

Structure (SMILES): O=C(Cc1ccc(Oc2ccccc2)cc1)Nc1ccc2ncsc2c1 [Compound 199]
- blotches in treated plants [1]: no blotches are found
- growth of treated plants [1]: favorably grow at a level equivalent to that of plants that grow have in noncontaminated soil
- blotches in treated plants [2]: no blotches are found
- growth of treated plants [2]: favorably grow at a level equivalent to that of plants that grow in noncontaminated soil
- growth of treated plants [3]: favorably grow at a level equivalent to that of plants that grow from noncontaminated seeds
- growth of treated plants [4]: favorably grow at a level equivalent to that of plants that have grown from noncontaminated unhulled rice
- infected areas of treated plants relative to infected areas of untreated plants [5]: ≤ 10%

Structure (SMILES): CCON=Cc1cccc(CNC(=O)c2ccc3ncccc3c2)c1 [Compound 200]
- blotches in treated plants [1]: no blotches are found
- growth of treated plants [1]: favorably grow at a level equivalent to that of plants that grow have in noncontaminated soil
- blotches in treated plants [2]: no blotches are found
- growth of treated plants [2]: favorably grow at a level equivalent to that of plants that grow in noncontaminated soil
- growth of treated plants [3]: favorably grow at a level equivalent to that of plants that grow from noncontaminated seeds
- growth of treated plants [4]: favorably grow at a level equivalent to that of plants that have grown from noncontaminated unhulled rice
- infected areas of treated plants relative to infected areas of untreated plants [5]: ≤ 10%

Structure (SMILES): O=C(Cc1cccc(OCc2ccccc2)c1)Nc1ccc2ncsc2c1 [Compound 201]
- blotches in treated plants [1]: no blotches are found
- growth of treated plants [1]: favorably grow at a level equivalent to that of plants that grow have in noncontaminated soil
- blotches in treated plants [2]: no blotches are found
- growth of treated plants [2]: favorably grow at a level equivalent to that of plants that grow in noncontaminated soil
- growth of treated plants [3]: favorably grow at a level equivalent to that of plants that grow from noncontaminated seeds
- growth of treated plants [4]: favorably grow at a level equivalent to that of plants that have grown from noncontaminated unhulled rice
- infected areas of treated plants relative to infected areas of untreated plants [5]: ≤ 10%

Structure (SMILES): C#CCCCOc1cccc(CNC(=S)c2ccc3ncccc3n2)c1F [Compound 205]
- blotches in treated plants [1]: no blotches are found
- growth of treated plants [1]: favorably grow at a level equivalent to that of plants that grow have in noncontaminated soil
- blotches in treated plants [2]: no blotches are found
- growth of treated plants [2]: favorably grow at a level equivalent to that of plants that grow in noncontaminated soil
- growth of treated plants [3]: favorably grow at a level equivalent to that of plants that grow from noncontaminated seeds
- growth of treated plants [4]: favorably grow at a level equivalent to that of plants that have grown from noncontaminated unhulled rice
- infected areas of treated plants relative to infected areas of untreated plants [5]: ≤ 10%

Structure (SMILES): COc1cccc(CC(=O)Nc2ccc3ncccc3c2)c1F [Compound 206]
- blotches in treated plants [1]: no blotches are found
- growth of treated plants [1]: favorably grow at a level equivalent to that of plants that grow have in noncontaminated soil
- blotches in treated plants [2]: no blotches are found
- growth of treated plants [2]: favorably grow at a level equivalent to that of plants that grow in noncontaminated soil
- growth of treated plants [3]: favorably grow at a level equivalent to that of plants that grow from noncontaminated seeds
- growth of treated plants [4]: favorably grow at a level equivalent to that of plants that have grown from noncontaminated unhulled rice
- infected areas of treated plants relative to infected areas of untreated plants [5]: ≤ 10%
